Data published in PubChem BioAssay AID445 (National Center for Advancing Translational Sciences (NCATS), 2006).
Several values for one entry are separate records, joined by “and”; a condition that tells them apart may be missing. Identical values can stand only once. This is one part of the list. The main result of the screen is listed elsewhere. These columns were measured beside it and carry no call. Most of these compounds were active or inconclusive in the main read-out, so they are no random draw. Words in brackets tell the shape of the fitted curve; partial curves, single points and poor fits give uncertain potencies.

Test: IkB Signaling
Conditions: ABC-DLBCL IkBa-CBG/CBR dual luciferase ratio (green luciferase fused to IkBa over red control in OCI-Ly3 lymphoma cells), 4 h
Summary of the method: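 Luminescence ratio of IκBα-fused green versus native red beetle luciferase in OCI-Ly3 cells, 4 h post-doxycycline with compound; red signal alone, scaled from basal (0%) to zero light (-100%), flagged nonspecific or cytotoxic effects.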

[1] = measured here: control luc red channel
[2] = measured here: IkB-luc green channel

Row | SMILES | AC50 [1] | AC50 [2]
1 | O=c1c2ccccc2nc(/C=C/c2cccc3ccccc23)n1-c1ccc(Cl)cc1 | 12.6 µM [falling, partial curve] | 
2 | Cc1cc(C)cc(NC(=O)CN2C(=O)CN=C(c3ccccc3)c3cc(Cl)ccc32)c1 | 15.8 µM [falling, partial curve] | 
3 | CCC(=NCc1ccc2c(c1)OCO2)c1c(O)n(C)c(=O)n(C)c1=O | 15.8 µM [falling, partial curve] | 
4 | CCCN(CCC)[C@@H]1CCc2c(OC)cccc2[C@@H]1C | 15.8 µM [rising, partial curve] | 
5 | Cn1nc(-c2ccc(OCC(=O)N3CCN(Cc4ccccc4)CC3)cc2)c2ccccc2c1=O | 10 µM [falling, partial curve] | 
6 | CN(C)C(=S)SSC(=S)N(C)C | 39.8 µM [falling, single point] | 7.94 µM [rising, partial curve]
7 | COc1ccc2nc(NC(=O)CCc3nc(C4=CCN(C)CC4)no3)sc2c1 | 12.6 µM [falling, partial curve] | 
8 | O=[N+]([O-])/C=C/c1ccccc1 | 15.8 µM [falling, full curve] | 5.01 µM [rising, partial curve, poor fit]
9 | COc1cccc(-n2c(/C=C\c3ccc(Cl)cc3)nc3ccccc3c2=O)c1 | 12.6 µM [falling, partial curve] | 
10 | CCCN(CCC)[C@@H]1CCc2cccc(O)c2C1 |  | 0.0501 µM [rising, full curve, poor fit]
11 | Cc1ccccc1-c1nn2c(=O)cc(CN3CCN(C(=O)COc4ccccc4Cl)CC3)nc2s1 | 25.1 µM [falling, single point] | 
12 | Cc1ccc(-n2c(/C=C\c3ccc(F)c(F)c3)nc3ccccc3c2=O)c(C)c1 | 3.98 µM [falling, partial curve] | 
13 | C[C@H]1C[C@H](C)C(=O)[C@@H]([C@H](O)CC2CC(=O)NC(=O)C2)C1 | 794 nM [falling, partial curve] and 251 nM [falling, full curve] | 
14 | Cc1cc(S(=O)(=O)NCC(C)C)ccc1OCC(=O)N1CCN(Cc2ccccc2)CC1 | 12.6 µM [falling, partial curve] | 
15 | COc1cccc(/C=C/c2nc3ccccc3c(=O)n2-c2ccc(Cl)cc2)c1OC | 15.8 µM [falling, partial curve] | 
16 | CN1Cc2ccccc2[C@@H]2c3cccc4[nH]cc(c34)C[C@H]21 | 31.6 µM [falling, partial curve] | 
17 | COc1ccc(C)cc1NC(=O)c1cccn(Cc2cccc([N+](=O)[O-])c2)c1=O | 1.58 µM [falling, full curve] | 
18 | C[C@H]1CCCC(=O)CCC/C=C/c2cc(O)cc(O)c2C(=O)O1 | 31.6 µM [falling, partial curve] and 20 µM [falling, partial curve] | 
19 | Cc1ccc(-n2c(/C=C/c3cccs3)nc3ccccc3c2=O)cc1C | 31.6 µM [falling, partial curve] | 

Row | SMILES | AC50 [1] | AC50 [2]
20 | CCCCCCN=C(CC)c1c(O)n(CCCC)c(=O)[nH]c1=O | 39.8 µM [falling, single point] | 
21 | CCOC(=O)c1c(C)n(Cc2ccccc2)c2ccc(OCC(O)CN3C(=O)CNC3=O)cc12 (stereo unspecified) | 25.1 µM [falling, single point] | 
22 | Cc1c(C(=O)c2ccc3ccccc3c2)c2cccc3c2n1[C@H](CN1CCOCC1)CO3 | 31.6 µM [falling, partial curve] | 
23 | CSc1ccc(CN2CCN(C(=O)COc3ccc(C)cc3)CC2)cc1 | 31.6 µM [falling, single point] | 
24 | CCCCn1c(O)c(C(CC)=NCCc2ccccc2)c(=O)[nH]c1=O | 31.6 µM [falling, single point] | 
25 | Cc1ccc(NC(=[OH+])c2cc3ccccc3cc2O)c(C)c1.Cc1ccc(NC(=[OH+])c2cc3ccccc3cc2O)c(C)c1.[Ni] | 3.98 µM [falling, partial curve] | 
26 | COc1ccc(OC)c(NC(=O)Cn2cc(C(=O)c3ccccc3)c3ccccc32)c1 | 6.31 µM [falling, full curve] | 
27 | COc1ccc(-c2nc(CN3C(=O)CN=C(c4ccccc4)c4cc(Cl)ccc43)c(C)o2)cc1 | 25.1 µM [falling, single point] | 
28 | Nc1c(C(=O)NCCc2ccccc2)c2nc3ccccc3nc2n1CCN1CCOCC1 | 12.6 µM [falling, partial curve] | 
29 | CN1Cc2c(ccc3c2OCO3)[C@@H]2[C@@H](O)Cc3cc4c(cc3[C@@H]21)OCO4 | 3.16 µM [rising, full curve, poor fit] | 3.16 µM [rising, full curve] and 3.16 µM [rising, partial curve]
30 | O=C(Nc1ccc2c(c1)OCCO2)c1cccn(Cc2cccc(F)c2)c1=O | 20 µM [falling, partial curve] | 
31 | O=[N+]([O-])c1cc(O)c(O)c([N+](=O)[O-])c1 | 15.8 µM [rising, single point] | 
32 | CC(C)OCCCNC(=O)c1c(N)n(CC2CCCO2)c2nc3ccccc3nc12 (stereo unspecified) | 12.6 µM [falling, partial curve] | 
33 | CN[C@@H]1C[C@@H](c2ccc(Cl)c(Cl)c2)c2ccccc21 |  | 25.1 µM [falling, partial curve, poor fit]
34 | O=C(Nc1ccc(Cl)cc1C(=O)c1ccccc1)c1ccccc1Br | 39.8 µM [falling, single point] | 
35 | COc1cc(C(c2c(O)c3ccccc3oc2=O)c2c(C)n(C)n(-c3ccccc3)c2=O)ccc1OCC(=O)O (stereo unspecified) | 5.01 µM [falling, full curve] | 
36 | Cc1c(Cl)cccc1NC(=O)CN1C(=O)C(C)N=C(c2ccccc2)c2ccccc21 (stereo unspecified) | 15.8 µM [falling, single point] | 
37 | CC1CN=C(Nc2cccc3ccccc23)S1 (stereo unspecified) | 15.8 µM [falling, partial curve] | 
38 | CCOC(=O)c1c(-c2ccc(OC)cc2)oc2ccc(OC(=O)N(C)C)cc12 | 12.6 µM [falling, partial curve] | 
